Data reported in paper PMC7966800, “Adiponectin-expressing Treg facilitate T lymphocyte development in thymic nurse cell complexes” (Communications Biology, 2021).
These are yes or no findings as the source states them, for the method shown. In cells and extracts the contact can be indirect. Some results given as binding are weak or reduced against the parent protein; the word gives no strength.

The chains behind the UniProt entries cited, without tags or fusion partners.
UniProt P16110: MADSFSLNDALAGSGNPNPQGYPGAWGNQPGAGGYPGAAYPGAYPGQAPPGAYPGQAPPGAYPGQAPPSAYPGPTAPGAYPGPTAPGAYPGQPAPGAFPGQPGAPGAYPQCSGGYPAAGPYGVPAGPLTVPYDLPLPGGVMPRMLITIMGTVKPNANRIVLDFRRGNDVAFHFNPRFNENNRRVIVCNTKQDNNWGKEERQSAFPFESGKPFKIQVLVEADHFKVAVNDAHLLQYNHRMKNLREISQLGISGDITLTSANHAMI

T1: CD100 (mouse (endogenous in thymic TNC complexes)) (UniProt O09126)
T1 sequence: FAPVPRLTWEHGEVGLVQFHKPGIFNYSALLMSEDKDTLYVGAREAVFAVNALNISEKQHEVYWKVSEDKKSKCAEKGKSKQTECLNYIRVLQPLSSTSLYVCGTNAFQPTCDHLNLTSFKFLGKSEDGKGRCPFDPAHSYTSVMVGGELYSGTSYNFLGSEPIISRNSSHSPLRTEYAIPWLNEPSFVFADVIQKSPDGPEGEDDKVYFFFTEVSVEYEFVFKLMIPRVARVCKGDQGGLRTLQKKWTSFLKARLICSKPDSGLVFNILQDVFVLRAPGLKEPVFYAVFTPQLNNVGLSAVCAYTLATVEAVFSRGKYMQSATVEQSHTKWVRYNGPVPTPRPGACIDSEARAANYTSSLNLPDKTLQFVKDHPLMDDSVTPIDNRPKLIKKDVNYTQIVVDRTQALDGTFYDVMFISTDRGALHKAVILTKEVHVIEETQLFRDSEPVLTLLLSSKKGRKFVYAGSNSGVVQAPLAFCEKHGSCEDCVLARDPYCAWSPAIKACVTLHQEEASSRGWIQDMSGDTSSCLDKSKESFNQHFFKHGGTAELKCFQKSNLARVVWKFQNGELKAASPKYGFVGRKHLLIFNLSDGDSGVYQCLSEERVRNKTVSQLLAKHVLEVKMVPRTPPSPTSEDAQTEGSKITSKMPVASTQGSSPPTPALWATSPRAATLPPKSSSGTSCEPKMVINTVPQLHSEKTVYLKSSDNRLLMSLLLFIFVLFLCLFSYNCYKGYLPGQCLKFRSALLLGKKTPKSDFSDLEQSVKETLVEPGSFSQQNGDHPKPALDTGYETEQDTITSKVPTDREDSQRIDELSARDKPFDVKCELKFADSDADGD


Experiments:
[1] = molecular target: T1, CD100 (mouse (endogenous in thymic TNC complexes)); test: co-IP; TNC complexes of AKO (adiponectin knockout) mice; immunoprecipitation with a polyclonal antibody to CD100 amino acids 812-862, Western blot for galectin-3
[2] = molecular target: T1, CD100 (mouse (endogenous in thymic TNC complexes)); test: co-IP; TNC complexes of WT mice; immunoprecipitation with a polyclonal antibody to CD100 amino acids 502-636, Western blot for adiponectin

binding [1] | binding [2] | Molecule
binds |  | galectin-3 (from UniProt P16110 1-264)
 | binds | Adiponectin (natural protein, mouse (endogenous in thymus), UniProt Q60994 18-247, looked up, adiponectin, mouse, endogenous protein of thymus and thymic nurse cell (TNC) complexes; found as trimer, hexamer and HMW oligomers; Endogenous secreted glycoprotein; detected with a polyclonal antibody against murine adiponectin; also called Adn; ADIPOQ; source: endogenous, thymus tissue and TNC complexes of wild-type mice, in lysate) EDDVTTTEELAPALVPPPKGTCAGWMAGIPGHPGHNGTPGRDGRDGTPGEKGEKGDAGLLGPKGETGDVGMTGAEGPRGFPGTPGRKGEPGEAAYVYRSAFSVGLETRVTVPNVPIRFTKIFYNQQNHYDGSTGKFYCNIPGLYYFSYHITVYMKDVKVSLFKKDKAVLFTYDQYQEKNVDQASGSVLLHLEVGDQVWLQVYGDGDHNGLYADNVNDSTFTGFLLYHDTN
